Some of these results come from one statement about several compounds together.
Experiments:
[1] = system: L4 stage larvae of Dirofilaria immitis; assay: Motility of L4 stage Dirofilaria immitis larvae, 3 days, dose response; format: cell-based; conditions: read-out: EC50, motility of L4 stage D. immitis; three days at 37° C., 5% CO2; vs DMSO control
[2] = system: Microfilaria of Dirofilaria immitis; assay: Motility of Dirofilaria immitis microfilariae in microtiter plate, 3 days, dose response; format: cell-based; conditions: read-out: EC50, motility of D. immitis microfilaria; three days at 37° C., 5% CO2; vs DMSO control

Row | Compound | EC50 [1] | EC50 [2]
1 | Cc1cc2c(C(C)(C)C)c(C(=O)NN3CCOc4ccccc43)cnn2c1-c1cc(Cl)cc(Cl)c1 [Compound A482] | < 10 nM | 
2 | CC(C)(C)c1c(C(=O)N[C@H]2CCc3ccccc32)cnn2c(-c3cc(Cl)cc(Cl)c3)c(Cl)cc12 [Compound A492] |  | < 10 nM

Source: US11999742B2, “Substituted pyrrolo[1,2-b]pyridazines as anthelmintics” (BOEHRINGER INGELHEIM VETMEDICA GMBH, priority 2021, dated 2024)
